We go through one molecule from PMC10165355.

No constants are given. Whether binding was seen depends on the method and setting. Binding seen in cells or lysates may run through a third protein. Here binding means that the protein was enriched with, or labelled near, the bait; the list need not be complete. Where a sequence is shown, tags or fusion partners need not be part of it.

This assay has as its target T1, Flag-DCLK1 (doublecortin-like kinase 1) (UniProt O15075).
T1 sequence: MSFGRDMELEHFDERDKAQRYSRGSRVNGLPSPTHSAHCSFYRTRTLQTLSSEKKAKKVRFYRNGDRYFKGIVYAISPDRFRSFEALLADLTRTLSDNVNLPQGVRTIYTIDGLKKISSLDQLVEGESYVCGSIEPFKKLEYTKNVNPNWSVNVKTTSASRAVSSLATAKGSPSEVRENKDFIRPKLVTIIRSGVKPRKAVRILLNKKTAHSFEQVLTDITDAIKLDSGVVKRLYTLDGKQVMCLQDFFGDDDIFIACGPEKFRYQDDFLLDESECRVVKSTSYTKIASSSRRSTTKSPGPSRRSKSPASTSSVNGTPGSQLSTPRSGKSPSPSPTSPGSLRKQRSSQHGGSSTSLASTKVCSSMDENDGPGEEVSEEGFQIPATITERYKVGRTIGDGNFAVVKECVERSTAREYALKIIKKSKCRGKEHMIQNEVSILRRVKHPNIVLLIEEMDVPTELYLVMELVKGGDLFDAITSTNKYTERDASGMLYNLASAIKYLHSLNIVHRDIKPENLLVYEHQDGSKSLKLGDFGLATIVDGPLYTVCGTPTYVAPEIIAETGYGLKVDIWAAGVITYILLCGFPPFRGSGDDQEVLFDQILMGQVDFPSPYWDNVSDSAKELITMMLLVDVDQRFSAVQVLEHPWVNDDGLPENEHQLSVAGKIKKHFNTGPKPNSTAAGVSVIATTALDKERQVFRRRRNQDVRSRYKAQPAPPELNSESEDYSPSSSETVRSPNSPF
Description: affinity purification with mass spectrometry; anti-Flag antibody added to lysate of 293T cells transfected with Flag-DCLK1; IgG as negative control; LC-MS/MS of the co-immunoprecipitate.

B1: IKKβ (endogenous in 293T cells) (protein, UniProt O14920 1-756)
chain: MSWSPSLTTQTCGAWEMKERLGTGGFGNVIRWHNQETGEQIAIKQCRQELSPRNRERWCLEIQIMRRLTHPNVVAARDVPEGMQNLAPNDLPLLAMEYCQGGDLRKYLNQFENCCGLREGAILTLLSDIASALRYLHENRIIHRDLKPENIVLQQGEQRLIHKIIDLGYAKELDQGSLCTSFVGTLQYLAPELLEQQKYTVTVDYWSFGTLAFECITGFRPFLPNWQPVQWHSKVRQKSEVDIVVSEDLNGTVKFSSSLPYPNNLNSVLAERLEKWLQLMLMWHPRQRGTDPTYGPNGCFKALDDILNLKLVHILNMVTGTIHTYPVTEDESLQSLKARIQQDTGIPEEDQELLQEAGLALIPDKPATQCISDGKLNEGHTLDMDLVFLFDNSKITYETQISPRPQPESVSCILQEPKRNLAFFQLRKVWGQVWHSIQTLKEDCNRLQQGQRAAMMNLLRNNSCLSKMKNSMASMSQQLKAKLDFFKTSIQIDLEKYSEQTEFGITSDKLLLAWREMEQAVELCGRENEVKLLVERMMALQTDIVDLQRSPMGRKQGGTLDDLEEQARELYRRLREKPRDQRTEGDSQEMVRLLLQAIQSFEKKVRVIYTQLSKTVVCKQKALELLPKVEEVVSLMNEDEKTVVRLQEKRQKELWNLLKIACSKVRGPVSGSPDSMNASRLSQPGQLMSQPSTASNSLPEPAKKSEELVAEAHNLCTLLENAIQDTVREQDQSFTALDWSWLQTEEEEHSCLEQAS
On to B1, for which the binding entry was “binds”.
